Consider eight molecules from publication PMC9354775.

Amino acid sequences for entries named in this document (tags omitted). A change or cut given only in a name is not applied to a line headed by its entry.
UniProt Q6WWW4: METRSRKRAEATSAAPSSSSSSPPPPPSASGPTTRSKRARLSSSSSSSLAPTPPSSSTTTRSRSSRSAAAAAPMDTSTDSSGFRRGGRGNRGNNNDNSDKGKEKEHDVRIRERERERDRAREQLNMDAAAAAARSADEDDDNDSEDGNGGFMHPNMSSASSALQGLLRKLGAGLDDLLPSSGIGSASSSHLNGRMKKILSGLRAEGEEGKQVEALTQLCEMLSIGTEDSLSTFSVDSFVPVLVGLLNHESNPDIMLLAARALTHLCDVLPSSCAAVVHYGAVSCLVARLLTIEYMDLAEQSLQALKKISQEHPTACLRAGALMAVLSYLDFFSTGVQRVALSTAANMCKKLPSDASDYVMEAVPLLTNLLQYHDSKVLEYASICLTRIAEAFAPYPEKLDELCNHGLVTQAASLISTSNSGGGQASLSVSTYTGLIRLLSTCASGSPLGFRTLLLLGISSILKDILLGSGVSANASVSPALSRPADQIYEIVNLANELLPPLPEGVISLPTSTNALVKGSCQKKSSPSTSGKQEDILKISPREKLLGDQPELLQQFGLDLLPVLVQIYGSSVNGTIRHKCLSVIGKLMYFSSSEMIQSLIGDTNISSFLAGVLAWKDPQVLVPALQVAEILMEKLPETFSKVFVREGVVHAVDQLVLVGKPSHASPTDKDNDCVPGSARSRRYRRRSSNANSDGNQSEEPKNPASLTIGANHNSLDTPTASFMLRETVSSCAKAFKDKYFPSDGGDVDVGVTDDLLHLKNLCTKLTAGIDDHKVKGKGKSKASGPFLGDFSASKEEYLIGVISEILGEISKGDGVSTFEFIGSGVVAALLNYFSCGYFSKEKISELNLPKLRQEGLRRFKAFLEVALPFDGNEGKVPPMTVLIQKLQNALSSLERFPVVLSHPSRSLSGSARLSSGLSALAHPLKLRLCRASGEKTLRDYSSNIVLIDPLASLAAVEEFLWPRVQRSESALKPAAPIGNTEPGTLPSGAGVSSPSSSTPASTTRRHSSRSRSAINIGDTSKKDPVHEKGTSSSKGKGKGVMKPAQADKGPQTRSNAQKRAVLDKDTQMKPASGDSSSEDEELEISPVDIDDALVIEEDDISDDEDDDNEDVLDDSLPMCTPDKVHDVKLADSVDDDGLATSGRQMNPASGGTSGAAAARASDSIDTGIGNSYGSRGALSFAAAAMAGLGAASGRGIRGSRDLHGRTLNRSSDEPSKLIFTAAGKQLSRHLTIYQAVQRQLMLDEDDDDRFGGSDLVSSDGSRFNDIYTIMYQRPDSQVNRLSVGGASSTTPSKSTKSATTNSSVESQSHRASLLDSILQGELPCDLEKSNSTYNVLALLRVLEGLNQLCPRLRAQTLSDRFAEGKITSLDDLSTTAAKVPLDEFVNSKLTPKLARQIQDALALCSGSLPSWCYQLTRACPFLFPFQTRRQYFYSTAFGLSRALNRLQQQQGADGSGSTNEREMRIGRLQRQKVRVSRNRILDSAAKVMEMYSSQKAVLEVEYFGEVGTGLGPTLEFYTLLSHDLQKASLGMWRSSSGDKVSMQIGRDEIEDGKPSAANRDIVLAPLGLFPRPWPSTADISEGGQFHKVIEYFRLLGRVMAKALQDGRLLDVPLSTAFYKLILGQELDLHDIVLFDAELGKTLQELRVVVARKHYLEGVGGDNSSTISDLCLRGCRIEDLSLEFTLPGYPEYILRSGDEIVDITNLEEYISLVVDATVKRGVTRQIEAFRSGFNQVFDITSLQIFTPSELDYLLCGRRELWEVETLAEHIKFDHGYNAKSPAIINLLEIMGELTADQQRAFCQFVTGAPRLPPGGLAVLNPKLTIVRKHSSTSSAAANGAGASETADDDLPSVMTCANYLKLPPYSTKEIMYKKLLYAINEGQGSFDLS
UniProt Q9S9K7: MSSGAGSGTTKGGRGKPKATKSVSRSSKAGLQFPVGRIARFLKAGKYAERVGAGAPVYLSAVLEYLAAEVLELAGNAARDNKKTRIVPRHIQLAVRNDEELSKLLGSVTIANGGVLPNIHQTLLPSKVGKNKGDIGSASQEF
UniProt Q9M1X3: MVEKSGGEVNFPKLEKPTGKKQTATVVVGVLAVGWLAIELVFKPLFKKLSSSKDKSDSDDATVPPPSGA
UniProt Q42525: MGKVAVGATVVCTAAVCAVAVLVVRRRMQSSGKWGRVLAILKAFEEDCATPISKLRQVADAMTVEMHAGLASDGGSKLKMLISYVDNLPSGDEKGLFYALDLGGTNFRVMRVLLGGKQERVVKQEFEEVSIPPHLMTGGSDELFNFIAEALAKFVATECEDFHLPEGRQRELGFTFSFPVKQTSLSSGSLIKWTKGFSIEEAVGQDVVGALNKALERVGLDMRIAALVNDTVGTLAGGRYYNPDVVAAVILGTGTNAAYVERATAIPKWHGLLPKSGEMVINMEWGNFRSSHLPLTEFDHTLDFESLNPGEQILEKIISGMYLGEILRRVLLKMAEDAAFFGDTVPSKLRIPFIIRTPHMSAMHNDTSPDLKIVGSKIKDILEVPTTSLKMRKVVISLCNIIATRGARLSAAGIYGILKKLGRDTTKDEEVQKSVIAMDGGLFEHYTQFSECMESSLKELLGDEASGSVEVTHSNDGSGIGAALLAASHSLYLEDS
UniProt Q6EVK6: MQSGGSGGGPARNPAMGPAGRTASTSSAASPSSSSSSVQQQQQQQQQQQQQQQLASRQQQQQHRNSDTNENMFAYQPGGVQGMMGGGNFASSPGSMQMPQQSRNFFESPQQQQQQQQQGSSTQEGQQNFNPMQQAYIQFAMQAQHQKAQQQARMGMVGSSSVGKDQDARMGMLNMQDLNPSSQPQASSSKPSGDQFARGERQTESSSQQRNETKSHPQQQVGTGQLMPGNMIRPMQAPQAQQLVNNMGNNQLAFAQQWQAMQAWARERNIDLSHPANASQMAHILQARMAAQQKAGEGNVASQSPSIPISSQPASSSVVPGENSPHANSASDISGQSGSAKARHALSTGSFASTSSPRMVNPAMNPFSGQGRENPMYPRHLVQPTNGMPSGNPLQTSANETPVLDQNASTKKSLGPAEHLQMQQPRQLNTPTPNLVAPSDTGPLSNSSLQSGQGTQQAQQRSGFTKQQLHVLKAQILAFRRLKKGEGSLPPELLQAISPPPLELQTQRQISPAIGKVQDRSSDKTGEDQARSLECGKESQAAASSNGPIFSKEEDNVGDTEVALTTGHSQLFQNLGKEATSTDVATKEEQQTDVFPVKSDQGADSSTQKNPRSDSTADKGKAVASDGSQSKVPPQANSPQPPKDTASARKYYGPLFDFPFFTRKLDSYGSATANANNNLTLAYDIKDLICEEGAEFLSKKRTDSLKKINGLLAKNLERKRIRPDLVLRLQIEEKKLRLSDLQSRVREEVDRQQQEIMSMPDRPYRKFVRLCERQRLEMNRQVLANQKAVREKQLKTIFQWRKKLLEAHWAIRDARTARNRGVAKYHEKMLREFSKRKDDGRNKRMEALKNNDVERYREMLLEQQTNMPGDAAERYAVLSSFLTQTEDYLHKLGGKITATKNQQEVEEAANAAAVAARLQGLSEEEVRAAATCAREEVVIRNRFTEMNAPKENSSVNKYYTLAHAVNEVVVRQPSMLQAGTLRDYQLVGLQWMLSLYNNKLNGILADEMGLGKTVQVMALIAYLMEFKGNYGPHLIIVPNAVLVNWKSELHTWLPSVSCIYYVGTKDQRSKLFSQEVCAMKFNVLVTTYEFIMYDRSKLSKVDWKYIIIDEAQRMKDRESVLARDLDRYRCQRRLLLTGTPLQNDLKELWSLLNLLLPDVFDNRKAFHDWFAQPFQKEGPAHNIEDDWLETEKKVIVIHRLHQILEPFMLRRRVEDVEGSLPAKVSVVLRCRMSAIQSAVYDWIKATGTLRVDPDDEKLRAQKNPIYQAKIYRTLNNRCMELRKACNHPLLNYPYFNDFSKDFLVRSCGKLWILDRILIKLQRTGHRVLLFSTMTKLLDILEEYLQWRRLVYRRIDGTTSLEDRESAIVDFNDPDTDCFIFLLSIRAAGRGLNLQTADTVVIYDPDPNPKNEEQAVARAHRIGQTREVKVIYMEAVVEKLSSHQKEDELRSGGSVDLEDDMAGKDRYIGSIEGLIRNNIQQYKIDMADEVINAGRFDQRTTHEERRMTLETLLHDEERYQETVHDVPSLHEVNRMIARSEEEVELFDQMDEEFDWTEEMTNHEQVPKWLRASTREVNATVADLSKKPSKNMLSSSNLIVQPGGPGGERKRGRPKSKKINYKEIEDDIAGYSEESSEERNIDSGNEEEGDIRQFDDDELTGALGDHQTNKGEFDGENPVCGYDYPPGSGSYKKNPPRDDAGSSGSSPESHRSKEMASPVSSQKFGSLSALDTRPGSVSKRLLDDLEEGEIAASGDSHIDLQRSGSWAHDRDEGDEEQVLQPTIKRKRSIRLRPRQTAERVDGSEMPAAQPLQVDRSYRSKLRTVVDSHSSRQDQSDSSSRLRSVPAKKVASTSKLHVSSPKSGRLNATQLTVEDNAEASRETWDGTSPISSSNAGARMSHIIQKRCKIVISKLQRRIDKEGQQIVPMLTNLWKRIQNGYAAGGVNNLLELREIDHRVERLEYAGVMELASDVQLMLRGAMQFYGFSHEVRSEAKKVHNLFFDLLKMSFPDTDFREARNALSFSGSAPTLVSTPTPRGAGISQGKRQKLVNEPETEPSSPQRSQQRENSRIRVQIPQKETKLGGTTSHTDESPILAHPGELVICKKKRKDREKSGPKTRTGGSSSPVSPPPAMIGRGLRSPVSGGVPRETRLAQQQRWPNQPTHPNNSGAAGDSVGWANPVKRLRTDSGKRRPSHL

Results are given in words; binding and its absence hold for the method and conditions named. Binding seen in cells or lysates may run through a third protein. Here binding means that the protein was enriched with, or labelled near, the bait; the list need not be complete.

The chains are these.
B1: ubiquitin hydrolase 12 (UBP12) (enzyme, UniProt Q9FPT1 1-1116)
chain: MTMMTPPPVDQPEDEEMLVPNSDLVDGPAQPMEVTQPETAASTVENQPAEDPPTLKFTWTIPNFSRQNTRKHYSDVFVVGGYKWRILIFPKGNNVDHLSMYLDVSDAASLPYGWSRYAQFSLAVVNQIHTRYTVRKETQHQFNARESDWGFTSFMPLSELYDPSRGYLVNDTVLVEAEVAVRKVLDYWSYDSKKETGFVGLKNQGATCYMNSLLQTLYHIPYFRKAVYHMPTTENDAPTASIPLALQSLFYKLQYNDTSVATKELTKSFGWDTYDSFMQHDVQELNRVLCEKLEDKMKGTVVEGTIQQLFEGHHMNYIECINVDFKSTRKESFYDLQLDVKGCKDVYASFDKYVEVERLEGDNKYHAEGHGLQDAKKGVLFIDFPPVLQLQLKRFEYDFMRDTMVKINDRYEFPLELDLDREDGKYLSPDADRSVRNLYTLHSVLVHSGGVHGGHYYAFIRPTLSDQWYKFDDERVTKEDLKRALEEQYGGEEELPQTNPGFNNNPPFKFTKYSNAYMLVYIRESDKDKIICNVDEKDIAEHLRVRLKKEQEEKEDKRRYKAQAHLYTIIKVARDEDLKEQIGKDIYFDLVDHDKVRSFRIQKQTPFQQFKEEVAKEFGVPVQLQRFWIWAKRQNHTYRPNRPLTPQEELQPVGQIREASNKANTAELKLFLEVEHLDLRPIPPPEKSKEDILLFFKLYDPEKAVLSYAGRLMVKSSSKPMDITGKLNEMVGFAPDEEIELFEEIKFEPCVMCEHLDKKTSFRLCQIEDGDIICFQKPLVNKEIECLYPAVPSFLEYVQNRQLVRFRALEKPKEDEFVLELSKQHTYDDVVEKVAEKLGLDDPSKLRLTSHNCYSQQPKPQPIKYRGVDHLSDMLVHYNQTSDILYYEVLDIPLPELQGLKTLKVAFHHATKEEVVIHNIRLPKQSTVGDVINELKTKVELSHPDAELRLLEVFYHKIYKIFPSTERIENINDQYWTLRAEEIPEEEKNIGPNDRLILVYHFAKETGQNQQVQNFGEPFFLVIHEGETLEEIKNRIQKKLHVSDEDFAKWKFAFMSMGRPEYLQDTDVVYNRFQRRDVYGAFEQYLGLEHADTTPKRAYAANQNRHAYEKPVKIYN
B2: SWIS3C (protein, UniProt Q9XI07 1-807)
chain: MPASEDRRGKWKRKKRGGLSAARKPKQEEEDMEEEDEENNNNNNEEMDDVENADELQQNGGATPDPGLGIGEVVEDSGSRISDFPAVVKRVVIRPHASVMAVVAAERAGLIGETRGQGSLPALENISFGQLQALSTVPADSLDLERSDGSSSAYVISPPPIMDGEGVVKRFGDLVHVLPMHSDWFAPNTVDRLERQVVPQFFSGKSPNHTPESYMEFRNAIVSKYVENPEKTLTISDCQGLVDGVDIEDFARVFRFLDHWGIINYCATAQSHPGPLRDVSDVREDTNGEVNVPSAALTSIDSLIKFDKPNCRHKGGEVYSSLPSLDGDSPDLDIRIREHLCDSHCNHCSRPLPTVYFQSQKKGDILLCCDCFHHGRFVVGHSCLDFVRVDPMKFYGDQDGDNWTDQETLLLLEAVELYNENWVQIADHVGSKSKAQCILHFLRLPVEDGLLDNVEVSGVTNTENPTNGYDHKGTDSNGDLPGYSEQGSDTEIKLPFVKSPNPVMALVAFLASAVGPRVAASCAHESLSVLSEDDRMKSEGMQGKEASLLDGENQQQDGAHKTSSQNGAEAQTPLPQDKVMAAFRAGLSAAATKAKLFADHEEREIQRLSANIVNHQLKRMELKLKQFAEIETLLMKECEQVEKTRQRFSAERARMLSARFGSPGGISPQTNNLQGMSLSTGGNNINSLMHQQHQQQQASATSQPSIIPGFSNNPQVQAQMHFMARQQQQQQQQQQQQQQAFSFGPRLPLNAIQTNAGSTASPNVMFGNNQLNNPAAAGAASINQPSFSHPMVRSSTGSGSGSGLGLN
B3: ERD14 (protein, UniProt P42763 1-185)
chain: MAEEIKNVPEQEVPKVATEESSAEVTDRGLFDFLGKKKDETKPEETPIASEFEQKVHISEPEPEVKHESLLEKLHRSDSSSSSSSEEEGSDGEKRKKKKEKKKPTTEVEVKEEEKKGFMEKLKEKLPGHKKPEDGSAVAAAPVVVPPPVEEAHPVEKKGILEKIKEKLPGYHPKTTVEEEKKDKE
B4: UBP13 (enzyme, UniProt Q84WU2 1-1115)
chain: MTMMTPPPLDQQEDEEMLVPNPDLVEGPQPMEVAQTDPAATAVENPPPEDPPSLKFTWTIPMFTRLNTRKHYSDVFVVGGYKWRILIFPKGNNVDHLSMYLDVADAANLPYGWSRYSQFSLAVVNQVNNRYSIRKETQHQFNARESDWGFTSFMPLSELYEPTRGYLVNDTVLIEAEVAVRKVLDYWSYDSKKETGFVGLKNQGATCYMNSLLQTLYHIPYFRKAVYHMPTTENDAPTASIPLALQSLFYKLQYNDTSVATKELTKSFGWDTYDSFMQHDVQELNRVLCEKLEDKMKGTVVEGTIQKLFEGHHMNYIECINVDYKSTRKESFYDLQLDVKGCKDVYASFDKYVEVERLEGDNKYHAEGHDLQDAKKGVLFIDFPPVLQLQLKRFEYDFMRDTMVKINDRYEFPLQLDLDREDGRYLSPDADKSVRNLYTLHSVLVHSGGVHGGHYYAFIRPTLSDQWYKFDDERVTKEDVKRALEEQYGGEEELPQNNPGFNNPPFKFTKYSNAYMLVYIRESDKDKIICNVDEKDIAEHLRVRLKKEQEEKEDKRKYKAQAHLFTTIKVARDDDITEQIGKNIYFDLVDHEKVRSFRIQKQTPFQQFKEEVAKEFGVPVQLQRFWIWAKRQNHTYRPNRPLSPNEELQTVGQIREASNKANNAELKLFLEIERGPDDLPIPPPEKTSEDILLFFKLYDPENAVLRYVGRLMVKSSSKPMDIVGQLNKMAGFAPDEEIELFEEIKFEPCVMCEQIDKKTSFRLCQIEDGDIICYQKPLSIEESEFRYPDVPSFLEYVQNRELVRFRTLEKPKEDEFTMELSKLHTYDDVVERVAEKLGLDDPSKLRLTSHNCYSQQPKPQPIKYRGVDHLSDMLVHYNQTSDILYYEVLDIPLPELQGLKTLKVAFHSATKDEVIIHNIRLPKQSTVGDVINELKTKVELSHQDAELRLLEVFFHKIYKIFPSTERIENINDQYWTLRAEEIPEEEKNIGPNDRLIHVYHFTKEAGQNQQVQNFGEPFFLVIHEGETLEEIKTRIQKKLHVPDEDFAKWKFASFSMGRPDYLLDTDVVYNRFQRRDVYGAWEQYLGLEHIDNAPKRAYAANQNRHAYEKPVKIYN

This assay has as its target UPL3-GFP (A. thaliana) (UniProt Q6WWW4). Briefly: affinity purification with mass spectrometry; GFP nanotrap (GBP beads) on lysate of rosette leaves of 6-wk-old ACTIN3:UPL3-GFP plants; IP buffer 50 mM Tris-HCl pH 7.4, 150 mM NaCl, 1 mM EDTA, 1% Nonidet P-40, 10% glycerol; 4°C, 2 h; hits of ACTIN3:GFP control plants subtracted.
Take H2AXb (from UniProt Q9S9K7 1-142): the binding result is “binds”. To AT3G63160 (from UniProt Q9M1X3) belongs “binds”; to “hexokinase 1 (HXK1) (from UniProt Q42525 1-496) (enzyme)”, “binds”. To “SWI-SNF chromatin-remodeling ATPase BRAHMA (BRM) (from UniProt Q6EVK6 1-2193)” belongs “binds”; to B1, “binds”.

Regarding B2, the binding entry is “binds”.

On to B3, for which the binding result is recorded as “binds”.

B4: the binding entry was “binds”.
